The values that follow come from patent publication US20240352439.

Chains of the proteins cited; added tags and fusions are not shown. Lines headed by an entry give the natural chain unless they say otherwise; changes in a name come on top.
UniProt P68398: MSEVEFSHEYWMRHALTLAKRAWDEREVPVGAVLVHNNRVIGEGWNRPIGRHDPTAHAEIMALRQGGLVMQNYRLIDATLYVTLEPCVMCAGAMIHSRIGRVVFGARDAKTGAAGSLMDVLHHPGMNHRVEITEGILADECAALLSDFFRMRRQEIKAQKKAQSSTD

A negative result means that nothing was seen under these conditions.

For this series, the target named is TadA wild type (Escherichia coli) (UniProt P68398). Nature of the series: binding assay. The conditions noted are these: N6-methyl-A at all A (transcribed with N6-methyl-ATP); fully rejects N6-methyladenosine in tRNA; purified recombinant protein; variant of E. coli tRNAArg(ACG) unmethylated.

For “GCAUCCGUAGCUCAGCUGGAUAGAGUACUCGGCUACGAACCGAGCGGUCGGAGGUUCGAAUCCUCCCGGAUGCACCA [E. coli tRNAArg(ACG) N6-methyl-A]”, the binding result is “no binding”.
